# According to US20240124539A1, “CROSSLINKED HELIX DIMER MIMICS OF SOS AND METHODS OF USING SAME” (NEW YORK UNIVERSITY, priority 2020, published 2024):
# Not every detail of the peptide structures is certain; ends, links or a residue may be inferred. Residues, ends and D or L forms follow the SMILES beside them.
# Tested on: Ras wild type and mutant cell lines
# Test: MTT cell viability assay
# Assay type: cell-based
# Conditions: 72 hours, in presence of serum; oncogenic Ras mutant cell lines in comparison to wild-type Ras HeLa control
# Protocol: Cell viability was monitored using the MTT (Sigma-Aldrich, M2128) or CellTiter-Glo Luminescent cell viability assay (Promega).
# Cell viability was monitored using the MTT (Sigma-Aldrich, M2128) […] cell viability assay. Cells were plated in clear 96-well plates at 2000 cells/well and allowed to affix overnight at 37° C. Each well is gently aspirated and washed with serum-free medium before introducing peptide inhibitors dissolved in complete medium with 0.5% DMSO (v/v final) to desired concentrations (90 μL/well). The cells are incubated in the presence of peptide for 72 hours at 37° C. MTT reagent solution is composed of Thiazolyl Blue Tetrazolium Bromide dissolved in Dulbecco's Phosphate Buffered Saline (DPBS), pH 7.4 to a concentration of 5 mg/mL and subsequently sterile-filtered into a light-protected container. MTT reagent was added to each well (0.45 mg/mL/well final). The cells are incubated at 37° C. for an additional 4 hours. Upon careful removal of the supernatant, 150 μL DMSO (solubilization solution) is added to each well and mixed to ensure complete solubilization and release of the insoluble purple formazan precipitate into solution. Absorbance values are recorded with a Synergy HT Multi-Detection Microplate Reader (BioTek) at 570 nm.
compound,measurement,value
"CC[C@H](C)[C@H](NC(=O)[C@H](Cc1c[nH]c2ccccc12)NC(C)=O)C(=O)NCC(=O)N[C@@H](CCCNC(=N)N)C(=O)N[C@@H](CC(C)C)C(=O)N[C@@H](CSCc1ccc(COCc2ccc(CSC[C@H](NC(=O)[C@H](CC(C)C)NC(=O)[C@H](CCCNC(=N)N)NC(=O)[C@H](C)NC(=O)[C@H](CC(C)C)NC(=O)[C@H](CCC(=O)O)NC(=O)[C@H](CCCNC(=N)N)NC(=O)[C@H](CCC(=O)O)NC(=O)[C@H](CC(C)C)NC(=O)[C@H](CCC(=O)O)NC(=O)[C@H](CCCNC(=N)N)NC(=O)[C@H](CC(C)C)NC(=O)[C@H](CCCNC(=N)N)NC(=O)[C@H](Cc3c[nH]c4ccccc34)NC(=O)[C@H](C)NC(=O)[C@H](CC(C)C)NC(C)=O)C(N)=O)cc2)cc1)C(=O)N[C@H](C(=O)N[C@@H](CCC(=O)O)C(=O)N[C@H](C(=O)N[C@@H](CC(C)C)C(=O)N[C@@H](CCCNC(=N)N)C(=O)N[C@@H](CC(C)C)C(=O)N[C@@H](CCCNC(=N)N)C(=O)N[C@@H](CC(N)=O)C(=O)NCC(=O)N[C@@H](CC(N)=O)C(N)=O)[C@@H](C)CC)[C@@H](C)O [CHC^Sos-2] (HELM PEPTIDE1{[ac].L.A.W.R.L.R.E.L.E.R.E.L.A.R.L.C.[am]}|PEPTIDE2{[ac].W.I.G.R.L.C.T.E.I.L.R.L.R.N.G.N.[am]}|CHEM1{[c1cc(C[*:1])ccc1COCc1ccc(C[*:2])cc1]}$PEPTIDE1,CHEM1,17:R3-1:R1|PEPTIDE2,CHEM1,7:R3-1:R2$$$V2.0)",cell viability (MTT),concentration-dependent toxicity
